Paper doi:10.1101/2022.12.11.519953
Read-outs that look alike come from different tables or passages of the source. No constants are given. Whether binding was seen depends on the method and setting. Some results given as binding are weak or reduced against the parent protein; the word gives no strength.

The chains behind the UniProt entries cited, without tags or fusion partners. Where a name states a change or a piece, a line headed by the entry shows the natural chain unless it says otherwise.
UniProt Q9Y6C2, whole entry: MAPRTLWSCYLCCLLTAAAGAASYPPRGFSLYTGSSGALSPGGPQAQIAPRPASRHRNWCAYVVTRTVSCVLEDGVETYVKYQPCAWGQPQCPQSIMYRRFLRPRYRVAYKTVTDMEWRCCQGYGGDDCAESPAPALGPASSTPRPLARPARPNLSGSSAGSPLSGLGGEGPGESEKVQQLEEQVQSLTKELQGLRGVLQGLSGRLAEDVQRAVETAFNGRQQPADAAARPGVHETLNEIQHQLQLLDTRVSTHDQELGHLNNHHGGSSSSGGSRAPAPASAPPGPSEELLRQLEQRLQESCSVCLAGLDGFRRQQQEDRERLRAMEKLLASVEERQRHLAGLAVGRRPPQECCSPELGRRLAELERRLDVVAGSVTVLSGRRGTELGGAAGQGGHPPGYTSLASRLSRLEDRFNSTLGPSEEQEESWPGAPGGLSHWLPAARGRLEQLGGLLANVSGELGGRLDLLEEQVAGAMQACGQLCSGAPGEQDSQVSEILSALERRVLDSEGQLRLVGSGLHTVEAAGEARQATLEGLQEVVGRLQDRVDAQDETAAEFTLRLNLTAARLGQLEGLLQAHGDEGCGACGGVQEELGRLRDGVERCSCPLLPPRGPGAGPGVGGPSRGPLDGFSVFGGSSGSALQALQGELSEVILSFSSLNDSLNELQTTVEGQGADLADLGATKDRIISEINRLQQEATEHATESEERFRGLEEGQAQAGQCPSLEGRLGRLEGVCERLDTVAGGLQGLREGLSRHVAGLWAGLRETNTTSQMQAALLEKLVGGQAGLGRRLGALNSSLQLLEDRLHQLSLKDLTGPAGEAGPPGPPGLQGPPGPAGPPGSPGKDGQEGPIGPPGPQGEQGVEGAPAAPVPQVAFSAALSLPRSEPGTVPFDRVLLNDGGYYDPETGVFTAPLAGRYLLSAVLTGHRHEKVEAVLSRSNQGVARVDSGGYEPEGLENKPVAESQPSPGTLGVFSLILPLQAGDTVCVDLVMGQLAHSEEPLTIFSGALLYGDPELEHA

Columns and labels:
Experiment in all cases: two-hybrid
[1] = molecular target: NF2 (Neurofibromine 2, merlin) isoform 7 (human) (UniProt P35240)
[2] = molecular target: NF2 (Neurofibromine 2, merlin) isoform 7 (human) (UniProt P35240); remark: listed apart in the source
[3] = molecular target: N-terminal half of NF2 isoform 7 (AA 1-K249) (human) (UniProt P35240)
[4] = molecular target: NF2 (Neurofibromine 2, merlin) isoform 1 (human) (UniProt P35240)
[5] = molecular target: NF2 (Neurofibromine 2, merlin) isoform 7 (human) (UniProt P35240); remark: listed apart in the source
[6] = molecular target: NF2 isoform 7 with an exon 17 derived C-terminus (human) (UniProt P35240)
[7] = molecular target: elastin microfibril interfacer 1 protein (UniProt Q9Y6C2)
[8] = molecular target: NF2 (Neurofibromine 2, merlin) isoform 7 (human) (UniProt P35240); remark: listed apart in the source
[9] = molecular target: NF2 isoform 1 S265L (human) (UniProt P35240)
[10] = molecular target: NF2 isoform 1 S518D (human) (UniProt P35240)
[11] = molecular target: NF2 isoform 7 with an exon 17 derived C-terminus (human) (UniProt P35240); remark: listed apart in the source
[12] = molecular target: phosphoinositide-3-kinase regulatory subunit 3 (UniProt Q92569)

| Substance | binding [1] | binding [2] | binding [3] | binding [4] | binding [5] | binding [6] | binding [7] | binding [8] | binding [9] | binding [10] | binding [11] | binding [12] |
| --- | --- | --- | --- | --- | --- | --- | --- | --- | --- | --- | --- | --- |
| C-terminal half of NF2 isoform 7 (AA M225-507) (from UniProt P35240-4 225-507) (domain or fragment) | – | – | no binding | no binding | binds | binds | binds | – | – | – | – | – |
| N-terminal half of NF2 isoform 1 (AA 1-K332) (from UniProt P35240-1 1-332) (domain or fragment) | – | – | – | no binding | no binding | – | – | – | – | – | – | – |
| elastin microfibril interfacer 1 protein (from UniProt Q9Y6C2 1-1016) | – | binds | – | no binding | binds | binds | binds | binds | binds | binds weakly | – | – |
| phosphoinositide-3-kinase regulatory subunit 3 (from UniProt Q92569 1-461) | binds | binds | binds | no binding | binds | binds | – | – | – | – | binds weakly | binds |

The remaining lines, values ahead:

| binding [1] | binding [2] | binding [3] | binding [4] | binding [5] | binding [6] | binding [7] | binding [8] | binding [9] | binding [10] | binding [11] | binding [12] | Substance |
| --- | --- | --- | --- | --- | --- | --- | --- | --- | --- | --- | --- | --- |
| binds | binds | no binding | no binding | binds | binds | binds | – | – | – | – | – | C-terminal half of NF2 isoform 1 (AA M308-595) (from UniProt P35240-1 308-595) (domain or fragment) |
| – | – | – | no binding | no binding | – | – | – | – | – | – | – | N-terminal half of NF2 isoform 7 (AA 1-K249) (from UniProt P35240-4 1-249) (domain or fragment) |
